Source: PMC5013017
No constants are given. Whether binding was seen depends on the method and setting. Binding seen in cells or lysates may run through a third protein. A yes stands for co-enrichment or nearness to the bait. Other partners may have been found.

Amino acid sequences for entries named in this document (tags omitted). Residues count along the entry.
UniProt P14136: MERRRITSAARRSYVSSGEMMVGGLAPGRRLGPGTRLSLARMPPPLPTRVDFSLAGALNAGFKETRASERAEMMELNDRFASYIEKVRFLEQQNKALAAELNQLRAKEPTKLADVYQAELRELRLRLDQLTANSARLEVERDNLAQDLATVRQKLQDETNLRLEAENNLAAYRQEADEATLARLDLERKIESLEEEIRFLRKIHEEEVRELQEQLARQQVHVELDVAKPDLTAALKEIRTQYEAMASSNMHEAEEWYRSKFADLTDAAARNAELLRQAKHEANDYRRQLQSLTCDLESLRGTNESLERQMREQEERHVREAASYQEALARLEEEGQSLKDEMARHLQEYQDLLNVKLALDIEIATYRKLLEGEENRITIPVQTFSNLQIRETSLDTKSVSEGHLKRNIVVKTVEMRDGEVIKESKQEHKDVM
UniProt P27338: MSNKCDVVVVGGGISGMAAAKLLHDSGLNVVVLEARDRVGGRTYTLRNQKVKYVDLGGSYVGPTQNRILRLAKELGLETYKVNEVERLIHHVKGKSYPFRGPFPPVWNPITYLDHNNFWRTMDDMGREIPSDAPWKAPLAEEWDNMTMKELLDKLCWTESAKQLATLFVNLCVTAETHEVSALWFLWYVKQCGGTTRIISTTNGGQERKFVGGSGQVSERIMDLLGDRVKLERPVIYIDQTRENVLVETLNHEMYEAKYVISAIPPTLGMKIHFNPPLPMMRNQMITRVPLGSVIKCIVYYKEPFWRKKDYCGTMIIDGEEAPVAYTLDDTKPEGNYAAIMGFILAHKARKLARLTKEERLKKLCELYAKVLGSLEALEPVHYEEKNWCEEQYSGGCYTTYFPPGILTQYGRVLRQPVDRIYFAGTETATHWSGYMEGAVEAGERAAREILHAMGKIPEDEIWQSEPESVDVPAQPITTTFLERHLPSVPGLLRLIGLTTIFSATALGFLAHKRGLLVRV
UniProt P02545, residues 1-646: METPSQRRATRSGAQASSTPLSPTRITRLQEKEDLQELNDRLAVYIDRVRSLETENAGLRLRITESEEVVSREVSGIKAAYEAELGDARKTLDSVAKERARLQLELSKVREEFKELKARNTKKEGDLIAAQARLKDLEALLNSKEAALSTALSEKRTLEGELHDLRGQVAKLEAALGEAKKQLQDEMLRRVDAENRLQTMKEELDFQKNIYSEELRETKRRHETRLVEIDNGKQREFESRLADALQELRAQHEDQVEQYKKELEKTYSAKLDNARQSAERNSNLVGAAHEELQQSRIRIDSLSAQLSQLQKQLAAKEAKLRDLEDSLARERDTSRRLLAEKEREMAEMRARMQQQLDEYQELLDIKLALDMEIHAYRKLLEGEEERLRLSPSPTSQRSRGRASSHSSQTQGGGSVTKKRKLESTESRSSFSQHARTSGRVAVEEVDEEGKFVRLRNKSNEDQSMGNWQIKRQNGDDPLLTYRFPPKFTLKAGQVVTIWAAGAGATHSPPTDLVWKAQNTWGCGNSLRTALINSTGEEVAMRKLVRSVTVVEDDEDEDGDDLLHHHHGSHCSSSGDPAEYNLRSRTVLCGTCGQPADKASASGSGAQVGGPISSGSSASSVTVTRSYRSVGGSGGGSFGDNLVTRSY
UniProt P78559: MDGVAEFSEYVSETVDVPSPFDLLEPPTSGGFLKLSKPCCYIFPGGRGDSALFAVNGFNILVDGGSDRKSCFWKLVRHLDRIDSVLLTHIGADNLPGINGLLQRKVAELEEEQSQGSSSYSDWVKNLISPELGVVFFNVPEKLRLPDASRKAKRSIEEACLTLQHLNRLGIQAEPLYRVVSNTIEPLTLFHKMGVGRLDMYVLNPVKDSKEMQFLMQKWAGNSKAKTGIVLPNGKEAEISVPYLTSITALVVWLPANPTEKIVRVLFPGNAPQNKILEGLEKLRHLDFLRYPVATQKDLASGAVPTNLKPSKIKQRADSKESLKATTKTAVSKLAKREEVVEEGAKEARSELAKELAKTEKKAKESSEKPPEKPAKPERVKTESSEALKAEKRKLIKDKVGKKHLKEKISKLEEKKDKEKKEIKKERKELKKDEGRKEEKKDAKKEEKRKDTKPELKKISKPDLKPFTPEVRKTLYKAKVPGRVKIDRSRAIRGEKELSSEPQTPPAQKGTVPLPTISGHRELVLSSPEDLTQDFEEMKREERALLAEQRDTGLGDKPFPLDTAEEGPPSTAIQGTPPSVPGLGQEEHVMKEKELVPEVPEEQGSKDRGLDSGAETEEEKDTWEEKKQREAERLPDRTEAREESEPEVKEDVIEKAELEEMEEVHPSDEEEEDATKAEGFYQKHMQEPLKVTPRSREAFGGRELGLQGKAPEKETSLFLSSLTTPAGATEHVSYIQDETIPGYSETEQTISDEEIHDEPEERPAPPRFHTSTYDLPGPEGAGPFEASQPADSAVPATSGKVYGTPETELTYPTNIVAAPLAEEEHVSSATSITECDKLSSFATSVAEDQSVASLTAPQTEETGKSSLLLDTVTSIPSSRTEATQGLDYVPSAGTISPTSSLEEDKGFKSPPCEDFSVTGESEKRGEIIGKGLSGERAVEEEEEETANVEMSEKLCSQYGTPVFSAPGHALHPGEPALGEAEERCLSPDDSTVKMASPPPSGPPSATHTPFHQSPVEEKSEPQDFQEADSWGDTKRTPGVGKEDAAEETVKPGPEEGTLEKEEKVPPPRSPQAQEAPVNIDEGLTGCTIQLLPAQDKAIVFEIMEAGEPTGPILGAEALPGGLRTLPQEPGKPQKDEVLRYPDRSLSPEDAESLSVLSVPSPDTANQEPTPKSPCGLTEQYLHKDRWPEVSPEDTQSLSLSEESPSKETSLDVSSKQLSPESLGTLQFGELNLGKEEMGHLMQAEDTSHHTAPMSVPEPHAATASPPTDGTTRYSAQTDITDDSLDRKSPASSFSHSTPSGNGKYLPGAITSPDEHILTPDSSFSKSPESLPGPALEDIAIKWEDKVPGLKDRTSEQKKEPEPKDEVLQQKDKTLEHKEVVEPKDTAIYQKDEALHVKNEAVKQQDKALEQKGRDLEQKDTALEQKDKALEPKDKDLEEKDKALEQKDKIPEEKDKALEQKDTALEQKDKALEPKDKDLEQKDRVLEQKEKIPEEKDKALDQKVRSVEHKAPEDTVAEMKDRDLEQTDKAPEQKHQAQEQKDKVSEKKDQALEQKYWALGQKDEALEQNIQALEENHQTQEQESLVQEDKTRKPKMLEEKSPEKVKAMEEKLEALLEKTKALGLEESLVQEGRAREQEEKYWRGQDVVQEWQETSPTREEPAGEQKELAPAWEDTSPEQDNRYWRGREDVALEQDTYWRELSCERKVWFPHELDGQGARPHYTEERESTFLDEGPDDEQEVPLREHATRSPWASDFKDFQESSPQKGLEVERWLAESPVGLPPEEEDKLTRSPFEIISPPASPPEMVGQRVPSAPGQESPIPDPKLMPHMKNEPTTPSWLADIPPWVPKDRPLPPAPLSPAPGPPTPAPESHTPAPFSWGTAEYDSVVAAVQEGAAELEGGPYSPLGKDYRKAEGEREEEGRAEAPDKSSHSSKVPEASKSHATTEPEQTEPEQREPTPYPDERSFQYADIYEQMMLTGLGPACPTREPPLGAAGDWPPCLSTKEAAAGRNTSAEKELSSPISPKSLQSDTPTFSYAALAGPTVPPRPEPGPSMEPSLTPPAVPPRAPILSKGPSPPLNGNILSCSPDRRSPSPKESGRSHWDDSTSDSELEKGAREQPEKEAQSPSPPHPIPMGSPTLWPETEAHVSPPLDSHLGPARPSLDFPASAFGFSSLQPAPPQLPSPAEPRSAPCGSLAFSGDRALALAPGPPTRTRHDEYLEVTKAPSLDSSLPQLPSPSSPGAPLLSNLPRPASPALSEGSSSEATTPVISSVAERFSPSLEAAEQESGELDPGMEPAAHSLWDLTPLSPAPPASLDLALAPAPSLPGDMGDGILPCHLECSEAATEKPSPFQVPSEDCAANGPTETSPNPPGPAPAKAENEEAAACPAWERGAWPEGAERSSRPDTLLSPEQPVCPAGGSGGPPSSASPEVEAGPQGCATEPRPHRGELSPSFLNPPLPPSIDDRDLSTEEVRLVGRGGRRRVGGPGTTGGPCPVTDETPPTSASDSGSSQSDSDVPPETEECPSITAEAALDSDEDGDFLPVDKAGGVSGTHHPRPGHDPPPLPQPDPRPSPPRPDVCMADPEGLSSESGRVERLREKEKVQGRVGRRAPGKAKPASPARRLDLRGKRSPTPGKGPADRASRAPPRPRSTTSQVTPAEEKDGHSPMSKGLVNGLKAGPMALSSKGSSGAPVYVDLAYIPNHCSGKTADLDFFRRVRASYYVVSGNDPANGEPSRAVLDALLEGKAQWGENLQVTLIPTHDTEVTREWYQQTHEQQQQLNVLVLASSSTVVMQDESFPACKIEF
UniProt O15061: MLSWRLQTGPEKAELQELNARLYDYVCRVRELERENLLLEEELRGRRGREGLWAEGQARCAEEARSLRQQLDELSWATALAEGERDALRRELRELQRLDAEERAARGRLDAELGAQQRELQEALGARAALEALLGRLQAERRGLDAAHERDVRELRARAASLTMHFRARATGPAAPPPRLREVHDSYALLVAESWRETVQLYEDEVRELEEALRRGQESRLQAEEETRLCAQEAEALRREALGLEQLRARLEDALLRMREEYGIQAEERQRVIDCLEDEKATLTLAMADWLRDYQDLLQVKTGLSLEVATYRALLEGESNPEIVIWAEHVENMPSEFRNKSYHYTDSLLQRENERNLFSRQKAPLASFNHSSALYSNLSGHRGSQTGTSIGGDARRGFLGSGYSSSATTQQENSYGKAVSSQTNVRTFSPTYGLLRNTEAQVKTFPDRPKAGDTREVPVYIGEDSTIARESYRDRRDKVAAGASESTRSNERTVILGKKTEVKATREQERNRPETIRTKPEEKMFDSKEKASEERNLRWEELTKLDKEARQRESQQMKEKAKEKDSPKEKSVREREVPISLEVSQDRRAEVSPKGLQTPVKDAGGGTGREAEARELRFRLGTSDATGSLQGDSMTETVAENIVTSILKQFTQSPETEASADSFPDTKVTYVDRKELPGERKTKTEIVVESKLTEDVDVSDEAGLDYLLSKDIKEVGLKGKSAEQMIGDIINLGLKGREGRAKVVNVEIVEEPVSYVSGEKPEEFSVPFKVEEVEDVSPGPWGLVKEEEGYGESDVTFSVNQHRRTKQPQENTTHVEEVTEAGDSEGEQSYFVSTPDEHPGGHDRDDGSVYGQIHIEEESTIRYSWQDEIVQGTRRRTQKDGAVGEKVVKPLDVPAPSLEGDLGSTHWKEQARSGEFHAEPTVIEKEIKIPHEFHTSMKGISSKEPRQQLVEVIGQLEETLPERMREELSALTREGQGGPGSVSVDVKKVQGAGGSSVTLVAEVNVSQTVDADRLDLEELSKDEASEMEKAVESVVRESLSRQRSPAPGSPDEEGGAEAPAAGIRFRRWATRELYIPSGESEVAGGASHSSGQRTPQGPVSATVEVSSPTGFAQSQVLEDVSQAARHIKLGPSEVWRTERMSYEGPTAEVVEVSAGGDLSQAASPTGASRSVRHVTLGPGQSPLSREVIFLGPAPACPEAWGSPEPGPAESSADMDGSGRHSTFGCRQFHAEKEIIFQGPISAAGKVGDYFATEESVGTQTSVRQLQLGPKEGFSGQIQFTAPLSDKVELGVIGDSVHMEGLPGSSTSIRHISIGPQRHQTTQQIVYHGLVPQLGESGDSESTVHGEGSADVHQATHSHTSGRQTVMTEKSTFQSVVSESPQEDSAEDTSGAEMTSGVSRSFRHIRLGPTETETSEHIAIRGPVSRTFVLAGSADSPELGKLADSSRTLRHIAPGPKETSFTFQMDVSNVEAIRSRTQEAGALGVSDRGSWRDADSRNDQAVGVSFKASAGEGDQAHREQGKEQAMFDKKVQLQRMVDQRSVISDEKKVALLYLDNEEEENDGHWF
UniProt P06733: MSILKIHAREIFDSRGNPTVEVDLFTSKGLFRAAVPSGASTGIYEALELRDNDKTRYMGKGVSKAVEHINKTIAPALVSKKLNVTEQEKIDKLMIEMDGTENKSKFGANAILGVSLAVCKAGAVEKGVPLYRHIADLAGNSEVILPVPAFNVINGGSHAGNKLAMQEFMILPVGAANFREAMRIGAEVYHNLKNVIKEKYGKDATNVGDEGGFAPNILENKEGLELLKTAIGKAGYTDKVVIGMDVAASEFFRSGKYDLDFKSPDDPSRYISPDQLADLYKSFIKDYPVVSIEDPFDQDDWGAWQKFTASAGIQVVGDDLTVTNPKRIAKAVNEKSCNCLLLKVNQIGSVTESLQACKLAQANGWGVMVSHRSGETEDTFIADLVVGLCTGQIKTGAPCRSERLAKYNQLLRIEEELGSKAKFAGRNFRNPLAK
UniProt Q16143: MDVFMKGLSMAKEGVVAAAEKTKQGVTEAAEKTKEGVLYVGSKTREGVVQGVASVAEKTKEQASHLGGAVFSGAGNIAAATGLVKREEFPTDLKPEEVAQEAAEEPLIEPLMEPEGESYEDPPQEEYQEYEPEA

Biological target: amyloid β peptide, Aβ1-42 (human (endogenous in hippocampus)) (UniProt P05067)
Assay: affinity purification with mass spectrometry; pools of caudal hippocampus (3 AD, 3 NC); homogenate on Protein-G magnetic beads coated with antibody to total tau (ab80579) or to Aβ (ab11132); rinsed 3x, eluted; 1% sarcosyl-insoluble pellet resolved on SDS gel, slices digested, LC-MS/MS

GFAP (from UniProt P14136 1-432) was tested, and the binding was “binds”.

With “Na+/K+ transporter ATPase α2 (from UniProt P50993 1-1020)” the binding was “binds”.

In the case of UBA-1 (from UniProt P22314 1-1058), the binding is reported as “binds”.

“amine oxidase B (from UniProt P27338 1-520)” was tested, and the binding was “binds”.

In the case of “excitatory amino acid transporter 2 (from UniProt P43004 1-574)”, the binding is reported as “binds”.

With lamin A/C (from UniProt P02545 1-646) the binding was “binds”.

In the case of “microtubule-associated protein 1B (from UniProt P46821 1-2468)”, the binding is reported as “binds”.

With “microtubule-associated protein MAP1A (from UniProt P78559 1-2803)” the binding was “binds”.

synemin (from UniProt O15061 1-1565) was tested, and the binding was “binds”.

With talin 2 (from UniProt Q9Y4G6 1-2542) the binding was “binds”.

In the case of vinculin (from UniProt P18206-2), the binding is reported as “binds”.

With α-enolase (from UniProt P06733 1-434) the binding was “binds”.

With β synuclein (from UniProt Q16143 1-134) the binding was “binds”.
